According to PubChem BioAssay AID248 (DTP/NCI, 2004):
The list does not hold the whole screen: it is rich in T/C values a quarter to a half above the control, in often repeated tests (any T/C) and in doses without a T/C. Further doses and runs are listed elsewhere. T/C is the treated group as % of the vehicle group. Some entries give survivors of the animals treated and no T/C: the source files T/C as zero there, which appears to mark a toxic dose or a test without result, not a measured value. Some doses without a T/C left all or most animals alive at the check, yet need not have been tolerated: survival well below the control is almost never listed, so the zero probably covers shortened survival too. Survivors were counted at the toxicity check, usually on the fifth day, unless a day is given; later deaths do not show. Schedule codes are those of the source, taken here to give the interval after Q, in days (D) or hours (H), and the number of doses after X. For survival time, this PubChem deposit counts one and a half times the control or more as active, and values a quarter to a half above the control carry no call in these data; other NCI protocols may use other cut-offs. Some doses were run more than once; the values are given in rising order. Additions like (4×) stand for listed records that agree. Some schedule codes hold Z or #, which are not explained here. Some T/C values carry the count of animals alive at the toxicity check (mostly the fifth day); without a count, all were alive then.

System: L1210 leukemia ip in BDF1 mice, survival T/C
Assay: NCI In Vivo Anticancer Drug Screen. Data for tumor model L1210 Leukemia (intraperitoneal) in B6D2F1 (BDF1) mice
Conditions: T/C endpoint: mean survival time, higher T/C = longer survival

N=[N+]=CC(=O)OCC(N)C(=O)O (stereo not given)
T/C (dose: 0.12 mg/kg/injection, schedule: Q#A X Z (ip), vehicle: saline): 137 % of control
T/C (dose: 0.25 mg/kg/injection, schedule: Q#A X Z (ip), vehicle: saline): 140 and 141 % of control
T/C (dose: 0.43 mg/kg/injection, schedule: Q01DX009 (ip), vehicle: saline): 131 % of control
T/C (dose: 0.5 mg/kg/injection, schedule: Q01DX010 (ip), vehicle: saline): 129 % of control
T/C (dose: 0.5 mg/kg/injection, schedule: Q#A X Z (ip), vehicle: saline): 136 and 145 % of control
T/C (dose: 1.0 mg/kg/injection, schedule: Q01DX005 (ip), vehicle: saline): 126 % of control
T/C (dose: 1.0 mg/kg/injection, schedule: Q01DX009 (ip), vehicle: saline): 126 % of control
T/C (dose: 1.0 mg/kg/injection, schedule: Q01DX010 (ip), vehicle: saline): 127 % of control
T/C (dose: 1.0 mg/kg/injection, schedule: Q01DX Z (ip), vehicle: saline): 127 % of control
T/C (dose: 1.0 mg/kg/injection, schedule: Q#A X Z (ip), vehicle: saline): 136 and 149 % of control
T/C (dose: 1.25 mg/kg/injection, schedule: Q01DX Z (ip), vehicle: saline): 146 % of control
T/C (dose: 1.44 mg/kg/injection, schedule: Q01DX Z (ip), vehicle: carboxymethylcellulose (CMC)): 128 % of control
T/C (dose: 1.57 mg/kg/injection, schedule: Q01DX010 (ip), vehicle: saline): 126, 127, 131, 139 % of control
T/C (dose: 2.0 mg/kg/injection, schedule: Q01DX009 (ip), vehicle: saline): 133 % of control
T/C (dose: 2.0 mg/kg/injection, schedule: Q01DX010 (ip), vehicle: saline): 131 and 133 % of control
T/C (dose: 2.0 mg/kg/injection, schedule: Q01DX Z (ip), vehicle: saline): 130, 134 [5 of 6 alive], 137 % of control
T/C (dose: 2.0 mg/kg/injection, schedule: Q#A X Z (ip), vehicle: saline): 136 and 149 % of control
T/C (dose: 2.4 mg/kg/injection, schedule: Q01DX Z (ip), vehicle: carboxymethylcellulose (CMC)): 131 % of control [9 of 10 alive]
T/C (dose: 2.5 mg/kg/injection, schedule: Q01DX Z (ip), vehicle: saline): 146 % of control
T/C (dose: 3.13 mg/kg/injection, schedule: Q01DX010 (ip), vehicle: saline): 129, 130, 134, 144 % of control
T/C (dose: 3.3 mg/kg/injection, schedule: Q01DX009 (ip), vehicle: saline): 115 (2×), 128, 134 % of control
T/C (dose: 3.6 mg/kg/injection, schedule: Q01DX Z (ip), vehicle: carboxymethylcellulose (CMC)): 127 and 134 % of control
T/C (dose: 4.0 mg/kg/injection, schedule: Q01DX005 (ip), vehicle: saline): 133 % of control
T/C (dose: 4.0 mg/kg/injection, schedule: Q01DX006 (iv), vehicle: saline): 127 % of control
T/C (dose: 4.0 mg/kg/injection, schedule: Q01DX009 (ip), vehicle: saline): 140 % of control
T/C (dose: 4.0 mg/kg/injection, schedule: Q01DX009 (sc), vehicle: saline): 129 % of control
T/C (dose: 4.0 mg/kg/injection, schedule: Q01DX Z (ip), vehicle: saline): 144 % of control
T/C (dose: 4.0 mg/kg/injection, schedule: Q03HX024 (ip), vehicle: saline): 139 % of control
T/C (dose: 4.0 mg/kg/injection, schedule: Q## X024 (ip), vehicle: saline): 135 % of control
T/C (dose: 4.0 mg/kg/injection, schedule: Q#A X Z (ip), vehicle: saline): 132 % of control
T/C (dose: 4.1 mg/kg/injection, schedule: Q02DX010 (ip), vehicle: carboxymethylcellulose (CMC)): 131 and 139 % of control
T/C (dose: 5.0 mg/kg/injection, schedule: Q01DX Z (ip), vehicle: saline): 138 % of control
T/C (dose: 5.3 mg/kg/injection, schedule: Q01DX015 (ip), vehicle: saline): 144 % of control
T/C (dose: 6.0 mg/kg/injection, schedule: Q02DX010 (ip), vehicle: carboxymethylcellulose (CMC)): 136 % of control
T/C (dose: 6.02 mg/kg/injection, schedule: Q02DX010 (ip), vehicle: carboxymethylcellulose (CMC)): 140 % of control
T/C (dose: 6.2 mg/kg/injection, schedule: Q02DX008 (ip), vehicle: saline): 125 % of control
T/C (dose: 6.2 mg/kg/injection, schedule: Q02DX010 (ip), vehicle: carboxymethylcellulose (CMC)): 141 and 148 % of control
T/C (dose: 6.25 mg/kg/injection, schedule: Q01DX010 (ip), vehicle: saline): 145, 152 (2×), 158 % of control
T/C (dose: 6.5 mg/kg/injection, schedule: Q01DX009 (ip), vehicle: saline): 131, 133, 134, 148 % of control
T/C (dose: 6.6 mg/kg/injection, schedule: Q02DX010 (ip), vehicle: carboxymethylcellulose (CMC)): 146 % of control
T/C (dose: 6.8 mg/kg/injection, schedule: Q02DX010 (ip), vehicle: carboxymethylcellulose (CMC)): 132 % of control
T/C (dose: 7.2 mg/kg/injection, schedule: Q01DX Z (ip), vehicle: carboxymethylcellulose (CMC)): 130 % of control
T/C (dose: 7.2 mg/kg/injection, schedule: Q02DX010 (ip), vehicle: other): 142 and 147 % of control
T/C (dose: 8.0 mg/kg/injection, schedule: Q01DX005 (ip), vehicle: saline): 132 % of control
T/C (dose: 8.0 mg/kg/injection, schedule: Q01DX006 (iv), vehicle: saline): 137 % of control
T/C (dose: 8.0 mg/kg/injection, schedule: Q01DX009 (oral), vehicle: saline): 128 % of control
T/C (dose: 8.0 mg/kg/injection, schedule: Q01DX009 (sc), vehicle: saline): 143 % of control
T/C (dose: 8.0 mg/kg/injection, schedule: Q01DX Z (oral), vehicle: saline): 125 % of control (2×)
T/C (dose: 8.0 mg/kg/injection, schedule: Q01DX Z (sc), vehicle: saline): 143 % of control
T/C (dose: 8.0 mg/kg/injection, schedule: Q03HX024 (ip), vehicle: saline): 139 % of control
survivor count (dose: 8.0 mg/kg/injection, schedule: Q03HX024 (ip), vehicle: water): 8 of 10
T/C (dose: 8.0 mg/kg/injection, schedule: Q03HX024 (oral), vehicle: saline): 141 % of control
T/C (dose: 8.0 mg/kg/injection, schedule: Q## X016 (ip), vehicle: saline): 134 % of control
T/C (dose: 8.0 mg/kg/injection, schedule: Q## X024 (ip), vehicle: saline): 147 % of control
T/C (dose: 8.0 mg/kg/injection, schedule: Q## X024 (oral), vehicle: saline): 134 % of control
T/C (dose: 9.4 mg/kg/injection, schedule: Q02DX010 (ip), vehicle: carboxymethylcellulose (CMC)): 142 and 146 % of control
T/C (dose: 9.89 mg/kg/injection, schedule: Q02DX010 (ip), vehicle: carboxymethylcellulose (CMC)): 131, 145, 146, 152, 153 % of control
T/C (dose: 10.0 mg/kg/injection, schedule: Q01DX Z (ip), vehicle: saline): 133 % of control
T/C (dose: 10.0 mg/kg/injection, schedule: Q02DX010 (ip), vehicle: carboxymethylcellulose (CMC)): 132, 143, 144 % of control
T/C (dose: 10.0 mg/kg/injection, schedule: Q04DX002 (ip), vehicle: saline): 95, 107, 116, 135 % of control
T/C (dose: 11.0 mg/kg/injection, schedule: Q02DX010 (ip), vehicle: carboxymethylcellulose (CMC)): 141, 143, 145, 151 % of control
T/C (dose: 12.0 mg/kg/injection, schedule: Q03DX006 (ip), vehicle: saline): 137 % of control
T/C (dose: 12.5 mg/kg/injection, schedule: Q01DX010 (ip), vehicle: saline): 156, 159, 166, 181 % of control
T/C (dose: 13.0 mg/kg/injection, schedule: Q01DX009 (ip), vehicle: saline): 141, 142, 144, 145 % of control
T/C (dose: 14.0 mg/kg/injection, schedule: Q02DX008 (ip), vehicle: saline): 142 % of control
T/C (dose: 14.0 mg/kg/injection, schedule: Q02DX010 (ip), vehicle: carboxymethylcellulose (CMC)): 143, 158, 161, 163 % of control
T/C (dose: 14.0 mg/kg/injection, schedule: Q07DX003 (ip), vehicle: saline): 125 % of control
T/C (dose: 14.4 mg/kg/injection, schedule: Q01DX Z (ip), vehicle: carboxymethylcellulose (CMC)): 136 % of control
T/C (dose: 15.0 mg/kg/injection, schedule: Q02DX010 (ip), vehicle: carboxymethylcellulose (CMC)): 138 % of control
T/C (dose: 15.0 mg/kg/injection, schedule: Q02DX010 (ip), vehicle: other): 142 % of control
T/C (dose: 15.5 mg/kg/injection, schedule: Q02DX010 (ip), vehicle: carboxymethylcellulose (CMC)): 140, 142, 156, 161, 162 % of control
T/C (dose: 16.0 mg/kg/injection, schedule: Q01DX005 (ip), vehicle: saline): 142 % of control
T/C (dose: 16.0 mg/kg/injection, schedule: Q01DX009 (ip), vehicle: saline): 132 and 135 % of control
T/C (dose: 16.0 mg/kg/injection, schedule: Q01DX009 (oral), vehicle: saline): 139 % of control
T/C (dose: 16.0 mg/kg/injection, schedule: Q01DX Z (ip), vehicle: saline): 139 and 143 % of control
T/C (dose: 16.0 mg/kg/injection, schedule: Q01DX Z (oral), vehicle: saline): 139 % of control
T/C (dose: 16.0 mg/kg/injection, schedule: Q02DX010 (ip), vehicle: carboxymethylcellulose (CMC)): 153 (2×), 155, 166 % of control
T/C (dose: 16.0 mg/kg/injection, schedule: Q03HX024 (oral), vehicle: saline): 146 % of control
T/C (dose: 16.0 mg/kg/injection, schedule: Q04DX003 (ip), vehicle: saline): 132 % of control
T/C (dose: 16.0 mg/kg/injection, schedule: Q## X003 (ip), vehicle: saline): 127 % of control
T/C (dose: 16.0 mg/kg/injection, schedule: Q## X008 (ip), vehicle: saline): 143 % of control
T/C (dose: 18.0 mg/kg/injection, schedule: Q01DX014 (ip), vehicle: saline): 141 % of control
T/C (dose: 18.0 mg/kg/injection, schedule: Q01DX015 (ip), vehicle: saline): 148 % of control
T/C (dose: 18.0 mg/kg/injection, schedule: Q01DX Z (ip), vehicle: carboxymethylcellulose (CMC)): 140 % of control
T/C (dose: 20.0 mg/kg/injection, schedule: Q01DX Z (ip), vehicle: saline): 125 % of control
T/C (dose: 20.0 mg/kg/injection, schedule: Q04DX002 (ip), vehicle: saline): 107, 120, 122, 135 % of control
T/C (dose: 21.0 mg/kg/injection, schedule: Q02DX010 (ip), vehicle: carboxymethylcellulose (CMC)): 165, 170, 177, 186 % of control
T/C (dose: 23.0 mg/kg/injection, schedule: Q02DX010 (ip), vehicle: carboxymethylcellulose (CMC)): 159, 160, 166, 167 (2×), 169, 183, 195 % of control
T/C (dose: 24.0 mg/kg/injection, schedule: Q02DX010 (ip), vehicle: carboxymethylcellulose (CMC)): 147, 156, 173, 185 % of control
T/C (dose: 24.0 mg/kg/injection, schedule: Q02DX010 (ip), vehicle: other): 147 % of control
